Laboratory results published in patent US7229803B2, “Reaction of (di)amines in the presence of a lysine oxidase and of a reducing agent” (BASF Aktiengesellschaft, priority 2001, dated 2007).

Target: T1, lysine oxidase from Pichia pastoris (Komagataella pastoris, UniProt Q96X16)
T1 construct: Purification of the Lysine Oxidase from Pichia pastoris; endogenous in cells; host or cells: Pichia pastoris (enzyme purified from the yeast itself)
T1 sequence (Q96X16 19-787): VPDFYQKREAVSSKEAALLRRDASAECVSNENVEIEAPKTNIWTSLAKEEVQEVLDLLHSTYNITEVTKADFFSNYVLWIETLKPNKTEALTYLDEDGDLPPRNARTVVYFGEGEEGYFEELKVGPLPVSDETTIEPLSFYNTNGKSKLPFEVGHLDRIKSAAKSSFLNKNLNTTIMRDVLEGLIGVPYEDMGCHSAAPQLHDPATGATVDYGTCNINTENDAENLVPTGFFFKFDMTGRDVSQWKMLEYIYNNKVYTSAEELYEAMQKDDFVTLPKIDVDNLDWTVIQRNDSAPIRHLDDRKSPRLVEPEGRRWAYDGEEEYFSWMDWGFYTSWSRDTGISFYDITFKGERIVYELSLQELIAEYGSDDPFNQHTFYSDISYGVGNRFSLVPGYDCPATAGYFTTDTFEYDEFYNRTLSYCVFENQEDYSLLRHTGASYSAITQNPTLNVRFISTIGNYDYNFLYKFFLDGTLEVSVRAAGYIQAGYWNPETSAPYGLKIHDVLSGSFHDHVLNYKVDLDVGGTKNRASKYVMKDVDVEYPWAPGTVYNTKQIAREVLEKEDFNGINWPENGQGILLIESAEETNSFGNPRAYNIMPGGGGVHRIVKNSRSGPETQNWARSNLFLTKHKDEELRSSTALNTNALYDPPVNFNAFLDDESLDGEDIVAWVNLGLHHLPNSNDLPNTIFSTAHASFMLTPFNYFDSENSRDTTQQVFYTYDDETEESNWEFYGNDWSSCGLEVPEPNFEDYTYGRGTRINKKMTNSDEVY
Test: Assays with various substrates: conversion in the presence of lysine oxidase (peroxidase/4-aminoantipyrine/phenol dye, absorption at 500 nm)
Format: biochemical
Settings: substrate 18.75-1200 μmol/l in water, no reducing agent, L-lysine = 100
Source text: The substrates employed were L-lysine monohydrochloride (for biochemical purposes, 99% from Merck), ethanolamine from BASF AG, glycine ethyl ester, 1,8-diaminooctane from Aldrich, n-butylamine from BASF AG, 1,4-diaminobutane from BASF AG, ethylenediamine from BASF AG, spermine from Aldrich, 3-aminomethylpyridine from Aldrich, benzylamine from Aldrich, L-(+)-ornithine hydrochloride (99% from Aldrich) and 1,6-diaminohexane from BASF AG.
Measurement series in each case with a concentration of 1 200, 600, 300, 150, 75, 37.5 and 18.75 μmol of (di)amine per 1 l of water were carried out in a microtiter plate. 2 measurement series were carried out in each case; one with enzyme and one without enzyme as reference.
100 μl of each of the diluted solutions were taken. To this solution were added 25 μl of lysine oxidase and 40 μl of 35 millimolar phenol solution in 200 millimolar potassium phosphate/potassium diphosphate solution with a pH of 7.5, 40 μl of a 2 millimolar aqueous 4-aminoantipyrine solution and 40 μl of a solution of 0.35 mg of peroxidase (horseradish from Sigma) in 1 ml of water.
In the reference measurement series, the 25 μl of lysine oxidase were replaced by 25 μl of water. A violet dye was formed by the […] produced on conversion of the substrates and its absorption in the UV at 500 nm was measured (T. Uwajima, O. Terada, Methods in Enzymology 1982, 89, 243 ff.). […]

| SMILES | Relative conversion rate compared with L-lysine in % |
| --- | --- |
| NCCC[C@@H](N)C(=O)O [D-Ornithine] | 90% |
| NCCC[C@H](N)C(=O)O [L-Ornithine] | 90% |
